PubChem BioAssay AID1159578 – Peter MacCallum Cancer Centre | 2015

Aim: 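siRNA pools altering how lymphatic endothelial cells close a scratch wound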 (primary screen)
Cells: human lymphatic endothelial cells
Reagents: siRNA pool against human genes, 40 nM
Duration: 48 h after transfection
Measurement: 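Cells stained with dye and imaged after a scratch; covered wound area and nuclei counted, duplicates averaged, migration set against mock wells and turned into a robust z-score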
Scale: migration robust z-score: higher = faster migration into the scratch; nuclei per well: higher = more cells in the well
Active means: 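Migration changed when robust z exceeds 2 or falls below -2 and mean nuclei number is at least 3300; otherwise not called changed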
Meaning of the calls: active = migration changed; inactive = no migration change, or too few cells
Here is one part, drawn at random, of about 18,000 reagents. Of all reagents, about 1,030 (5.7%) were called active. 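Inactive calls also include pools with fewer than 3300 nuclei, whose migration was not assessed.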 The raw values are shown without normalisation. A number with no mark means an inactive call. Further read-outs or replicates are left out here. No sequences are given here.

| migration robust z-score | nuclei per well, duplicate mean | gene |
| --- | --- | --- |
| -1.98 | 5660 | ODAD1 |
| 0.02 | 5799 | TFDP3 |
| 0.83 | 5570 | GDPD3 |
| -0.41 | 7184 | MRC2 |
| -2.31 (active) | 4854 | ALK |
| 0.49 | 5766 | CCDC13 |
| 0.96 | 5989 | TEX13B |
| -1.56 | 4696 | EIF4EBP2 |
| -1.37 | 3628 | RPL10A |
| -0.86 | 5508 | ERCC6 |
| 0.5 | 5022 | GTF2A1 |
| -0.43 | 5094 | DOCK1 |
| -2.41 (active) | 5403 | PPP1R35 |

Reformatted: results already given
DOCK1 | migration robust z-score: -0.43; nuclei per well, duplicate mean: 5094
PPP1R35 | migration robust z-score: -2.41 (active); nuclei per well, duplicate mean: 5403

Additional reagents:
| migration robust z-score | nuclei per well, duplicate mean | gene |
| --- | --- | --- |
| 0.29 | 5405 | CELA2B |
| -0.6 | 5601 | SCRG1 |
| 0.47 | 5860 | RAB27A |
| 1.29 | 6223 | FAM153B |
| -2 | 4830 | NT5C |
| -0.34 | 5946 | ERBIN |
| -0.8 | 5954 | GP6 |
| -0.57 | 4849 | KLK14 |
| -0.3 | 5098 | CDH11 |
| 1.31 | 4886 | GIMAP5 |
| 0.22 | 6582 | SPANXN4 |
| -0.22 | 5642 | BCAR3 |
| -1.48 | 3980 | CACFD1 |
| -0.5 | 4934 | VMA12 |
| 1.19 | 5523 | GOLPH3L |
| 0.44 | 5959 | SLC25A32 |
| -0.4 | 6786 | CFAP58 |
| 0.28 | 5406 | IRAK4 |
| 0.73 | 6086 | IMPDH1 |
| -0.22 | 5484 | PHLDA1 |
| 0.17 | 5340 | NFKBID |
| -0.97 | 3158 | ZNF471 |
| -0.02 | 5844 | A1CF |
| 0.21 | 4849 | GRIK3 |
| 0.08 | 5819 | C1orf74 |
| 1.72 | 5018 | TAGLN |
